Experimental data published in PMC7341970.
Results are given in words; binding and its absence hold for the method and conditions named. Binding seen in cells or lysates may run through a third protein. A result given as binding can be weak or reduced; the word gives no strength.

Biological target: HA-BRG1-N (N-terminal fragment of BRG1), in 293T (mouse)
Experiment: co-IP; mapping in HEK293T cells transfected with tagged constructs, harvested after 48 h; whole cell lysate on antibody-coupled Dynabeads Protein G overnight at 4°C, Western blot

B1: full-length ADNP, in 293T (protein, UniProt Q9Z103 1-1108)
chain: MFQLPVNNLGSLRKARKTVKKILSDIGLEYCKEHIEDFKQFEPNDFYLKNTTWEDVGLWDPSLTKNQDYRTKPFCCSACPFSSKFFSAYKSHFRNVHSEDFENRILLNCPYCTFNADKKTLETHIKIFHAPNSSAPSSSLSTFKDKNKNDGLKPKQADNVEQAVYYCKKCTYRDPLYEIVRKHIYREHFQHVAAPYIAKAGEKSLNGAVSLGTNAREECNIHCKRCLFMPKSYEALVQHVIEDHERIGYQVTAMIGHTNVVVPRAKPLMLIAPKPQDKKGMGLPPRISSLASGNVRSLPSQQMVNRLSIPKPNLNSTGVNMMSNVHLQQNNYGVKSVGQSYGVGQSVRLGLGGNAPVSIPQQSQSVKQLLPSGNGRSFGLGAEQRPPAAARYSLQTANTSLPPGQVKSPSVSQSQASRVLGQSSSKPPPAATGPPPSNHCATQKWKICTICNELFPENVYSVHFEKEHKAEKVPAVANYIMKIHNFTSKCLYCNRYLPTDTLLNHMLIHGLSCPYCRSTFNDVEKMAAHMRMVHIDEEMGPKTDSTLSFDLTLQQGSHTNIHLLVTTYNLRDAPAESVAYHAQNNAPVPPKPQPKVQEKADVPVKSSPQAAVPYKKDVGKTLCPLCFSILKGPISDALAHHLRERHQVIQTVHPVEKKLTYKCIHCLGVYTSNMTASTITLHLVHCRGVGKTQNGQDKTNAPSRLNQSPGLAPVKRTYEQMEFPLLKKRKLEEDADSPSCFEEKPEEPVVLALDPKGHEDDSYEARKSFLTKYFNKQPYPTRREIEKLAASLWLWKSDIASHFSNKRKKCVRDCEKYKPGVLLGFNMKELNKVKHEMDFDAEWLFENHDEKDSRVNASKTVDKKHNLGKEDDSFSDSFEHLEEESNGSGSPFDPVFEVEPKIPSDNLEEPVPKVIPEGALESEKLDQKEEEEEEEEEDGSKYETIHLTEEPAKLMHDASDSEVDQDDVVEWKDGASPSESGPGSQQISDFEDNTCEMKPGTWSDESSQSEDARSSKPAAKKKATVQDDTEQLKWKNSSYGKVEGFWSKDQSQWENASENAERLPNPQIEWQNSTIDSEDGEQFDSMTDGVADPMHGSLTGVKLSSQQA
- binding: binds
